For the assay, the target named is mouse MMP-9 catalytic domain (mouse). Kind of assay: ELISA, biotinylated MMP-9 on streptavidin plate, soluble antibody, peroxidase anti-mouse IgG. A general note: ELISA stands for enzyme-linked immunosorbent assay.

Consider one molecule from patent publication US20130039922A1.

No constants are given. Whether binding was seen depends on the method and setting. Binding calls can cover weak binding; strength is not graded here.

B1: SDS3 (antibody, V domains shown)
VH: VQLQESGGGLVKPGGSLKLSCAASGFAFSTYDMSWIRQTPEKRLEWVATISSGGSYTYYPDSVKGRFTISKDNARNTLYLQMSSLRSGDTALYYCTRFRYDGWYFDVWGQG
VL: DVLITQTPLSLPVSLGDQASISCRSSQSIVHSNGNTFLEWYLQKPGQSPKLLIYKVSNRFSGVPDRFSGSGSGTDFTLKISRVEAEDLGVYYCFQASHVPPTFGGG
With B1, the binding result is listed as “binds”.
